Measurements taken from PubChem BioAssay AID651768 (National Center for Advancing Translational Sciences (NCATS), 2012).
The whole screen tested about 360,000 compounds, of which about 1,700 (0.47%) were called active. Inconclusive means that the source gave no clear call. Such entries were picked first, then a sample of the others. Calls follow the shape of the dose curve; as a rule, active = well fitted inhibition curve with a large enough effect; inconclusive = small, poorly fitted or top-dose-only effect; inactive = no such curve, though single readings can be large or run the other way. Potencies of inconclusive entries are doubtful fits and often do not repeat.

Amino acid sequences for entries named in this document (tags omitted).
UniProt Q14191, whole entry, looked up: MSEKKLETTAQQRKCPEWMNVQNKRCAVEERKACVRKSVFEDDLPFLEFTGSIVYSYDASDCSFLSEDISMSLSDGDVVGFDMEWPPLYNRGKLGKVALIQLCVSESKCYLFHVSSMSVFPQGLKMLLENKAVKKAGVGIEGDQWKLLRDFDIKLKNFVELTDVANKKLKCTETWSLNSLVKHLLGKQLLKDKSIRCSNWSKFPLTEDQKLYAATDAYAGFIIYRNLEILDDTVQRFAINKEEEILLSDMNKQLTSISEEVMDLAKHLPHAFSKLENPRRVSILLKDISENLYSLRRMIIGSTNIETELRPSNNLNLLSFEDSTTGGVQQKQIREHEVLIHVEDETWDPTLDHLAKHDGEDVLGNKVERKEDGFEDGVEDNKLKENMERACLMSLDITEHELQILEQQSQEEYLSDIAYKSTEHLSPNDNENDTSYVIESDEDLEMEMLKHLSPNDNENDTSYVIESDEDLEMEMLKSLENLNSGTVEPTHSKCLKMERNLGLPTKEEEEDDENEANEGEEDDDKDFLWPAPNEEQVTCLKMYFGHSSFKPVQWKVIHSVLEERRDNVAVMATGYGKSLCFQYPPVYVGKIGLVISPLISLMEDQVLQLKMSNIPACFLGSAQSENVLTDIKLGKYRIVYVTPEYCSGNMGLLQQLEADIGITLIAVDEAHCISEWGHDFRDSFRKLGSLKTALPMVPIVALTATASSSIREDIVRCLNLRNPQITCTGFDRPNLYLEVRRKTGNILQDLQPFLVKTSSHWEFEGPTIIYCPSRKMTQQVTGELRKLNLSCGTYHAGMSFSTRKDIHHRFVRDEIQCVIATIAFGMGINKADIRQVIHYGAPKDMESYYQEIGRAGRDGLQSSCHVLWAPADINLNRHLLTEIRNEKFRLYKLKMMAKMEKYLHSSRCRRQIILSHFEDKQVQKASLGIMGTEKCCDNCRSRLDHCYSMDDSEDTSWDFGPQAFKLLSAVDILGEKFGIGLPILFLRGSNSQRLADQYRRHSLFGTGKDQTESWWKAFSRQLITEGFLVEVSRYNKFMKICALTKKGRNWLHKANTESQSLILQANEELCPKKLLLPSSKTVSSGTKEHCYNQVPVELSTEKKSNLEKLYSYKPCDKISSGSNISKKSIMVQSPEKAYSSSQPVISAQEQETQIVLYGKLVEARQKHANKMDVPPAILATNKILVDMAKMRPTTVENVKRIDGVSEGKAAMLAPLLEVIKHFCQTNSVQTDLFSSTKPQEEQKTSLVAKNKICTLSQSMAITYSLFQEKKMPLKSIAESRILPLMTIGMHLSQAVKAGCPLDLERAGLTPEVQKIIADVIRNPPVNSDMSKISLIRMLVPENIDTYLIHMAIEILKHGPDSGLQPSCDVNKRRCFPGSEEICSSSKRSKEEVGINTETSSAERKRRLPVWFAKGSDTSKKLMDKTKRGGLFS

The compounds below were run against Bifunctional 3'-5' exonuclease/ATP-dependent helicase WRN (Homo sapiens) (UniProt Q14191) (assay: qHTS for Inhibitors of WRN Helicase). Conditions: WRN helicase unwinding, fluorescent forked duplex, kinetic; activity change, negative = inhibition: at 114 µM (top of the series) unless noted.
Summary of the method: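 Kinetic fluorescence helicase assay: unwinding of a quenched forked DNA duplex (100 nM final) with 2 mM ATP final raises red fluorescence (525/598 nm). Compounds sat 15 min at room temperature with 20 nM WRN beforehand.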
% is scaled to controls: 0 for no effect and ±100 for the full control effect; potency is read from the fitted curve at half-maximal effect.
Also: nearly all actives have a fitted effect of over 55% in size.

SMILES | Potency | activity change, negative = inhibition
O=C(CSc1nccc(-c2cccs2)n1)Nc1cccc(Cl)c1Cl | inconclusive: 6.31 µM [inhibitor, full curve, poor fit] | –
C/C(=N/Nc1ccc(C(=O)O)cc1)c1ccc2c(c1)Nc1ccccc1S2 | – | inactive: -5.37% [at 11.6 µM]
N#Cc1ccsc1NC(=O)COc1ccc(-c2nnco2)cc1 | inconclusive: 50.1 µM [inhibitor, partial curve] | –
CN1C(=O)/C(=C\c2ccccc2OCc2ccccc2)SC1=S | inactive | –
Cc1cc(C)nc(Sc2nc(Cl)nc(N(c3ccccc3)c3ccccc3)n2)n1 | inconclusive: 44.7 µM [inhibitor, full curve, poor fit] | –
N=C1S/C(=C\c2ccco2)C(=O)N1c1ccc2c(c1)OCO2 | inconclusive: 50.1 µM [inhibitor, partial curve] | –
O=C(O)C(CO)(c1ccccc1)c1ccccc1 | inconclusive: 3.16 µM [inhibitor, partial curve, poor fit] | –
Cc1cccc(C)c1NC(=O)CNC(=O)c1ccc(NS(=O)(=O)c2ccc3[nH]c(=O)[nH]c3c2)cc1 | inconclusive: 20 µM [inhibitor, full curve] | –
O=C(CNCc1ccccc1Cl)NCc1ccco1 | inconclusive: 50.1 µM [inhibitor, partial curve] | –
C=C(CN(C)C)C(=O)c1ccc2c(c1)OCO2 | inconclusive: 28.2 µM [inhibitor, partial curve] | –
C[C@@H]1NC(=O)N[C@@H]1CCCCCC(=O)O | inconclusive: 28.2 µM [inhibitor, full curve, poor fit] | –
COCCCNC(=O)c1ccc2c3c(onc13)-c1ccccc1C2=O | active: 22.4 µM | –
N#C/C(=C\c1cc(Cl)cc(Cl)c1O)C(=O)NC1CCCCC1 | inconclusive: 28.2 µM [inhibitor, partial curve] | –
COc1cc2sc3cc(NCC[C@@H]4CCCN4C)ccc3c(=O)c2cc1OC | inconclusive: 56.2 µM [inhibitor, partial curve] | –
Cc1ccccc1C(=O)NCCn1cc(SCC(=O)NCC2CCCO2)c2ccccc21 (configuration not stated) | inconclusive: 50.1 µM [inhibitor, partial curve] | –
O=c1c2oc3ccccc3c2[nH]c(=S)n1-c1ccccc1 | inactive | –
COc1ccc(NC(=O)/C(C#N)=C/c2c(C)nn(-c3ccc(F)cc3)c2Cl)cc1Cl | inconclusive: 12.6 µM [inhibitor, single point] | –
O=C(O[C@@H]1OC2COC(=O)c3cc(O)c(O)c(O)c3-c3c(cc(O)c(O)c3O)C(=O)O[C@@H]([C@H]1O)[C@@H]2O)c1cc(O)c(O)c(O)c1 | inconclusive: 282 µM [inhibitor, partial curve, poor fit] | –
Cc1cc(Cl)c(OCCOCCN2CCCCC2)c(Br)c1 | inconclusive: 25.1 µM [inhibitor, full curve] | –
Cc1cc(C)c(OCC(=O)Nc2ccc(S(=O)(=O)N3CCCC3)cc2)c(C)c1 | inconclusive: 39.8 µM [inhibitor, single point] | –
O=C(/C=C/c1ccco1)c1cccc([N+](=O)[O-])c1 | inconclusive: 56.2 µM [inhibitor, partial curve] | –

Reformatted with tabs: part of the list above.
SMILES	Potency	activity change, negative = inhibition
O=c1c2oc3ccccc3c2[nH]c(=S)n1-c1ccccc1	inactive	–
COc1ccc(NC(=O)/C(C#N)=C/c2c(C)nn(-c3ccc(F)cc3)c2Cl)cc1Cl	inconclusive: 12.6 µM [inhibitor, single point]	–
O=C(O[C@@H]1OC2COC(=O)c3cc(O)c(O)c(O)c3-c3c(cc(O)c(O)c3O)C(=O)O[C@@H]([C@H]1O)[C@@H]2O)c1cc(O)c(O)c(O)c1	inconclusive: 282 µM [inhibitor, partial curve, poor fit]	–

(list continues)

SMILES | Potency | activity change, negative = inhibition
Cc1cccc(NC(=O)CSc2nnc(-c3ccco3)c(-c3ccco3)n2)c1C | active: 31.6 µM | –
O=C(Nc1ccccc1[N+](=O)[O-])c1cc(S(=O)(=O)N2CCOCC2)cs1 | inconclusive: 89.1 µM [inhibitor, single point] | –
O=C(O)CC(CCc1ccccc1)OC1OC(CO)C(O)C(O)C1O (configuration not stated) | inconclusive: 8.91 µM [inhibitor, full curve] | –
COc1cccc(NC(=O)CSc2nnc(-c3ccco3)c(-c3ccco3)n2)c1 | active: 44.7 µM | –
Cc1cccc(CCN(C(=O)c2csnn2)C(C(=O)NC2CCCC2)c2ccco2)c1 (configuration not stated) | inconclusive: 63.1 µM [inhibitor, partial curve, poor fit] | –
CC(C)c1ccc(/C=C/C(=O)NC(=S)Nc2ccc(CN3CCOCC3)cc2)cc1 | inconclusive: 39.8 µM [inhibitor, single point] | –
CNC(=O)COc1ccc(Nc2nnc(C)c3ccccc23)cc1 | inconclusive: 5.01 µM [inhibitor, full curve, poor fit] | –
COc1ccc(OC)c(S(=O)(=O)n2c([N+](=O)[O-])cnc2C)c1 | inconclusive: 89.1 µM [inhibitor, single point] | –
Cn1nc(-c2ccccc2)c(CO)c1Oc1ccc(F)cc1 | inconclusive: 28.2 µM [inhibitor, single point] | –
CN(C)S(=O)(=O)c1ccc2c(c1)/C(=C/c1cc3c([nH]1)CCCC3)C(=O)N2 | inactive | –
COc1ccc(-c2nc(C)sc2C)cc1 | inconclusive: 39.8 µM [inhibitor, single point] | –
CCOc1ccc(S(=O)(=O)N(C)c2ccc(OCC(=O)Nc3nccs3)cc2)cc1 | inactive | –
O=S(=O)(Nc1ccc(O)c2ccccc12)c1ccc(OC(F)(F)F)cc1 | active: 56.2 µM | –
Cc1ccc(-n2nc(-c3ccco3)cc2C(=O)O)cc1 | active: 44.7 µM | –
Oc1ccc2ccccc2c1N=Nc1ccc(F)cc1 | inactive | –
O=C(O)c1cccc(-c2ccc(/C=N/Nc3ccc([N+](=O)[O-])cc3)o2)c1 | inconclusive: 44.7 µM [inhibitor, partial curve] | –
O=C(O)CCc1ccc(-c2ccccc2)n1Cc1ccco1 | inconclusive: 44.7 µM [inhibitor, partial curve] | –
COc1ccc(/C=C2\SC(=S)NC2=O)cc1OS(=O)(=O)c1ccc(NC(C)=O)cc1 | inconclusive: 44.7 µM [inhibitor, partial curve] | –
CCOC(=O)c1c(N)sn(-c2ccccc2C)c1=S | inconclusive: 50.1 µM [inhibitor, partial curve] | –
O=C(CSc1nc(C2CC2)nc2ccccc12)Nc1ccccc1 | inactive | –
O=C1NC(c2ccc(Br)cc2)Nc2sc3c(c21)CCC3 (configuration not stated) | inconclusive: 21.2 µM [inhibitor, partial curve] | –
